Experimental data as given in article doi:10.1101/2020.04.22.055343.

By UniProt entry, the sequences of proteins in these tests, tags left out. Where a name states a change or a piece, a line headed by the entry shows the natural chain unless it says otherwise.
UniProt P35637: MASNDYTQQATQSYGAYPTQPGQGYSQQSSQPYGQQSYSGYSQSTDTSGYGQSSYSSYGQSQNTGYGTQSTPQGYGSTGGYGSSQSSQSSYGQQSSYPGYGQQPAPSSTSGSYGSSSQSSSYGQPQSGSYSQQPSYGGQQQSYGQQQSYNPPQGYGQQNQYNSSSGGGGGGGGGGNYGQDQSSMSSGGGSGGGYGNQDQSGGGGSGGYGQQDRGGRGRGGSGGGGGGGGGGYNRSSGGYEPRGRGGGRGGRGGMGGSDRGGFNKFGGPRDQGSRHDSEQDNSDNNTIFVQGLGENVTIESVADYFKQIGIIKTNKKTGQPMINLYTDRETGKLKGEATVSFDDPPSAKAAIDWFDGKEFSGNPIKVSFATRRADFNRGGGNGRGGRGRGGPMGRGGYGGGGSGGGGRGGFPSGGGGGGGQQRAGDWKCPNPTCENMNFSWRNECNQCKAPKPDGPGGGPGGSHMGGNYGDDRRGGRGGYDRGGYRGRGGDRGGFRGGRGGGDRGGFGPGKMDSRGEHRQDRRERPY
UniProt P28340: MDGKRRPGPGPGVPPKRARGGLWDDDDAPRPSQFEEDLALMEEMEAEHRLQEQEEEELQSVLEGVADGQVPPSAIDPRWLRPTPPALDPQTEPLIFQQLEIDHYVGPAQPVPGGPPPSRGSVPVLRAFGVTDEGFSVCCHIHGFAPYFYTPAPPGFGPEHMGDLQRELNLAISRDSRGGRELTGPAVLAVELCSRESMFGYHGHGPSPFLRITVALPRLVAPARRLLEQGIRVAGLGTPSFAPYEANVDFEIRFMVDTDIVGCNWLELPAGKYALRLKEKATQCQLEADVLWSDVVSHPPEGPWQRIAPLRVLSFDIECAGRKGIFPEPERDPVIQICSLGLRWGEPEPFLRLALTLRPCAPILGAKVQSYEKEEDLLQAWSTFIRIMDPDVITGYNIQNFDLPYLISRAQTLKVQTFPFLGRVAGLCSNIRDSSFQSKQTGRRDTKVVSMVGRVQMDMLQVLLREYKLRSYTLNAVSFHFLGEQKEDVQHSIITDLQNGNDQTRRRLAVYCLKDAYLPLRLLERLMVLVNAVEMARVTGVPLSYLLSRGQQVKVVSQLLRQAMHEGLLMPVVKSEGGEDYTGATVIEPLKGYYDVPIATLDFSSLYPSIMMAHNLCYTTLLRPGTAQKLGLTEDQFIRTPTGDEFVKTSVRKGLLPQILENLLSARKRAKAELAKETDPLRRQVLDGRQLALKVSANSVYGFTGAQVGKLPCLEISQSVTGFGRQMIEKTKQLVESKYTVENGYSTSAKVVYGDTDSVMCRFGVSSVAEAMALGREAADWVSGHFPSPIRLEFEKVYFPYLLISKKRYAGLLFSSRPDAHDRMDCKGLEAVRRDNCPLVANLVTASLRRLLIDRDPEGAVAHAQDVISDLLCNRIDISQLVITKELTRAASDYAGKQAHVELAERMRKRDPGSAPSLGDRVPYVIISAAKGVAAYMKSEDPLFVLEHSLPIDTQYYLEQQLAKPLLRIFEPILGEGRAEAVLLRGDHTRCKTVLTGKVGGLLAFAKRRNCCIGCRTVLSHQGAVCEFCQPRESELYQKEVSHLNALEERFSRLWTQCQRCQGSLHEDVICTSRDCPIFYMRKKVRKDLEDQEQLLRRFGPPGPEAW
UniProt P12956: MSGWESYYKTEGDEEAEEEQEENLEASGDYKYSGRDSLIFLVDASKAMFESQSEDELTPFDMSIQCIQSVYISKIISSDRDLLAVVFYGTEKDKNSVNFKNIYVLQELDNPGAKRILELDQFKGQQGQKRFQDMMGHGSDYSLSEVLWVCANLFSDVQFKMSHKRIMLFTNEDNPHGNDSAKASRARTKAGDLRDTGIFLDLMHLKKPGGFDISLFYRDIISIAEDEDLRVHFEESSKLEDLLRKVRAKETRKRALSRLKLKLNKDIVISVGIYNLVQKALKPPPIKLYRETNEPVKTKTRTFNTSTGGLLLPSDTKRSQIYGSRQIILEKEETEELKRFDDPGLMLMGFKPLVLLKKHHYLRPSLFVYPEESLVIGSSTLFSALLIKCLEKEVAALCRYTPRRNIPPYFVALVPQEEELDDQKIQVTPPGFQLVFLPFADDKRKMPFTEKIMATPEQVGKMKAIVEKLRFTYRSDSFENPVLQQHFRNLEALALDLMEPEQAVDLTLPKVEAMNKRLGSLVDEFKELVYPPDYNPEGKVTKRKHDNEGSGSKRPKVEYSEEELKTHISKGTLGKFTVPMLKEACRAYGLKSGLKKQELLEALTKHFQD
UniProt P11387: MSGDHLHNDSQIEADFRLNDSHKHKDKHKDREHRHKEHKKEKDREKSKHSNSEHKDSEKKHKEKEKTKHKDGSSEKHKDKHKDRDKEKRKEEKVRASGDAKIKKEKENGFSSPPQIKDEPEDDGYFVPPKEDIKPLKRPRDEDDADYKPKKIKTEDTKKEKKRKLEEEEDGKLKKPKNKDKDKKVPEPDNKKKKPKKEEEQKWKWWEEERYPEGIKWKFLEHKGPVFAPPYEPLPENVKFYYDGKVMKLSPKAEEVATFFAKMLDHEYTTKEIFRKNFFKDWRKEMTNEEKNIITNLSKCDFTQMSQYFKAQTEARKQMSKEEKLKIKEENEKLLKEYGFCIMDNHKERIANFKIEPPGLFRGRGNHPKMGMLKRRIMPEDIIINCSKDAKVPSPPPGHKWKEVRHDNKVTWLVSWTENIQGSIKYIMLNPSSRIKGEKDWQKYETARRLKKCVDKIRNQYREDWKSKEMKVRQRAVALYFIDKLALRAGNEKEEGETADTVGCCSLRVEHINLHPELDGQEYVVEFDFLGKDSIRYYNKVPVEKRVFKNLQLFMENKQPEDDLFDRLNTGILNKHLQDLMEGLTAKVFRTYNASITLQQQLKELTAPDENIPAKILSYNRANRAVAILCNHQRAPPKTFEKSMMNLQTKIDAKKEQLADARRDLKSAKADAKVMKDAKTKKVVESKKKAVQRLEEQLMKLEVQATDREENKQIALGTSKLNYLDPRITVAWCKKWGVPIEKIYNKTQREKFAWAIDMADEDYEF
UniProt P13010: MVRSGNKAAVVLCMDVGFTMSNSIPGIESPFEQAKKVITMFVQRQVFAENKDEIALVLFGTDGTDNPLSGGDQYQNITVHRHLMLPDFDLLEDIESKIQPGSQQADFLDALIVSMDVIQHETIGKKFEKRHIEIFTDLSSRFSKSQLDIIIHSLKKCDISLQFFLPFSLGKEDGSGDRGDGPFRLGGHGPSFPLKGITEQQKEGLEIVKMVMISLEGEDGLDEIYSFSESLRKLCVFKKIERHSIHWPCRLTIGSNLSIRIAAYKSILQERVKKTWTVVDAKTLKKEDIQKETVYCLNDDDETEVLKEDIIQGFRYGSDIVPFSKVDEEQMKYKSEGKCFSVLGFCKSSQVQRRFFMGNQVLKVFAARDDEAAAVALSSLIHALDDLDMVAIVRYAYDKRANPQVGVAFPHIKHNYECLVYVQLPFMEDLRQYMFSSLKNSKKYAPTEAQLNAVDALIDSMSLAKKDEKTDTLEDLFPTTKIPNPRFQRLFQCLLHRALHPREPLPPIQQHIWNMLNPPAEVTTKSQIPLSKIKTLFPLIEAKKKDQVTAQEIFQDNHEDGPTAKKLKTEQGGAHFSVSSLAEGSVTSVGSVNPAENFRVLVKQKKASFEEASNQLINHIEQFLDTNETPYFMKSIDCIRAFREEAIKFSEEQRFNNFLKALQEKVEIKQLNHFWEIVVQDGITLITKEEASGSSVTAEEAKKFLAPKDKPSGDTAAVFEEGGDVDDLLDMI
UniProt P27695: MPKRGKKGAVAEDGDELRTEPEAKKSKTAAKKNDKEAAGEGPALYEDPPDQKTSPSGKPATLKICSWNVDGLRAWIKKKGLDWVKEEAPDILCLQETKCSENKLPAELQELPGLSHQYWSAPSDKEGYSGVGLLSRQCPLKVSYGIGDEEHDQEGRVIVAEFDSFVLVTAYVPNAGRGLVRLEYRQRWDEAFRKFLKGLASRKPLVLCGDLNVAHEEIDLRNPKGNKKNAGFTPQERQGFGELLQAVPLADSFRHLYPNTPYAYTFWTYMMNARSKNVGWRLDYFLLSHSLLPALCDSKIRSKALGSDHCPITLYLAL
UniProt P09874: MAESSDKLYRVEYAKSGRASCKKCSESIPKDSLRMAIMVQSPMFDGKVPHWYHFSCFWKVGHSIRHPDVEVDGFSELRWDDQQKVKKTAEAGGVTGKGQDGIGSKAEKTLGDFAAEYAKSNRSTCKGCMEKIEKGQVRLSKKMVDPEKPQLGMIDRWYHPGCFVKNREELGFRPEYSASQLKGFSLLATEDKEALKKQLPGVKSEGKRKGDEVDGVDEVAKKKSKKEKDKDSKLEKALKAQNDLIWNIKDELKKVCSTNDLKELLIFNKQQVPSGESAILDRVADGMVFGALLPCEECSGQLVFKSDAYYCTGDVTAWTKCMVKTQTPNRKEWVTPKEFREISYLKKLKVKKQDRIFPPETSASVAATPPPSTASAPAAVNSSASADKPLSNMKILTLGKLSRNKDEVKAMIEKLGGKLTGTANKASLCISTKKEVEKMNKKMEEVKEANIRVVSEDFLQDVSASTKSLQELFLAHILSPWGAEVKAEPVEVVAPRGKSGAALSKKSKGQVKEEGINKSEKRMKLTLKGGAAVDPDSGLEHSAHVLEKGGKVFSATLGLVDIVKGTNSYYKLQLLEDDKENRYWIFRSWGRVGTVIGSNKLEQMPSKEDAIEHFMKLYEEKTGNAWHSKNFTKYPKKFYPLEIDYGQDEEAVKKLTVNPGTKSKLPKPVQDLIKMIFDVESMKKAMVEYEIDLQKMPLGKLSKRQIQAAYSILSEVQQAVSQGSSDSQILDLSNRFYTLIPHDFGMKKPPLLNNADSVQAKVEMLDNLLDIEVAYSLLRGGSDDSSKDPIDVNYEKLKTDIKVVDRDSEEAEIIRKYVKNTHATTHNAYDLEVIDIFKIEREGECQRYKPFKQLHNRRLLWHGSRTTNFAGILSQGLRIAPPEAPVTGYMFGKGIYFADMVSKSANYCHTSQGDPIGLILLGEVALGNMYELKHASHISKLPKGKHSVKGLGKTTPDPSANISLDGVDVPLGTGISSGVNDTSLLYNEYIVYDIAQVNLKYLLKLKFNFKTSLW
UniProt P12004: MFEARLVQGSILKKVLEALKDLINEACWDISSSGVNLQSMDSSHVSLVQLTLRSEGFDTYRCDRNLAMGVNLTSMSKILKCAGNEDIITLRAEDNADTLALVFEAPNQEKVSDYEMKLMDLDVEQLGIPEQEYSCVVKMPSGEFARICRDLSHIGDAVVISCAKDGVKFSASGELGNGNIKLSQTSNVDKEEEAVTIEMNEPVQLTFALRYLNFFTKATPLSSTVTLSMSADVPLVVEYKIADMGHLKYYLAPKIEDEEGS

Biological target: Fused in sarcoma (FUS) (human (endogenous in U-2 OS)) (UniProt P35637)
Assay: affinity purification with mass spectrometry

Row | Substance | binding
1 | DNA polymerase δ (POLδ or POLD1) (from UniProt P28340 1-1107) | binds
2 | Ku70 (from UniProt P12956 1-609) | binds
3 | DNA-PK (from UniProt P78527 1-4128) | binds
4 | TOP1 (from UniProt P11387 1-765) | binds
5 | Ku80 (from UniProt P13010 1-732) | binds
6 | APEX1 (from UniProt P27695 1-318) (other; other documents disagree on this pair) | binds
7 | PARP1 (from UniProt P09874 1-1014) | binds
8 | PCNA (from UniProt P12004 1-261) | binds

No constants are given. Whether binding was seen depends on the method and setting. In cells and extracts the contact can be indirect. These calls come from enrichment with a bait or labelling near it, and not all partners need be listed.
